Test results taken from patent publication US20200239398A1, “METHYLENE-CYCLOALKYLACETATE DERIVATIVES AND THEIR USE IN TREATMENT OF NEUROTROPIC CONDITIONS” (Yissum Research Development Company of The Hebrew …, priority 2018, published 2020).
Some results were stated once for a whole list of compounds, not compound by compound.

Each compound was assayed on PC12 cells (assay: PC12 cell neurotropic assay (neurite outgrowth)). Details: 10 μM.
Assay type: cell-based, rat
Experimental: PC12 cells were grown in T-200 flasks in high glucose (4.5 gr/L) DMEM medium supplemented with 7% FCS, 7% horse serum and 1% penicillin and streptomycin. Cells were incubated at 37° C. in a humidified incubator containing 6% CO2. All experiments were carried out in a clean room, according to ISO7 requirements (10,000 particles/m^3).
Tissue culture Falcon plates were coated with 200 μg/ml collagen type 1 and placed under UV light for 30 minutes for sterilization. Thereafter, one ml of PC12 cell suspension (5000 cells/well) was applied in 12 or 24 well plate, respectively. The cultures were grown in the incubator two days before exposure to investigated compound.
This experimental procedure contained two controls. The first consisted of untreated cells (negative control), representing the random effect: “noise signal”—the ability of cells to spontaneously grow neurite outgrowth which in seven days are of a length less than two-fold cell diameter. Also, negative controls consisted of cultures treated with 1% DMSO, solvent used to solubilize all compounds. The positive control consisted of cells treated with 50 ng/ml NGF, indicating maximal neurite outgrowth that can be achieved in this model. The experimental group consisted of PC12 cells treated with synthetic compounds. In each experiment, after two and seven days, six cultures were evaluated for neurotropic effect. These consecutive observations allow measurement of the progress of neurite outgrowth elongation and the percentage of cells with neurites.^31
In order to assess neurotropic effect, the neurite outgrowth length in each culture was quantified. For this purpose, each culture was placed under an inverted microscope and photographed by the attached camera. Each well was photographed at three to five representative areas. After acquiring the photos, they were analyzed by ImageJ, NIH software. The neurite outgrowth was estimated by fractal dimension (Df), a statistical parameter that describes the fractional space (area and length) filled by neurite outgrowth. Df ranged from 0 to 1.20. This method estimates the amount of picsel covered by neurites/cells compared to empty space per square field, and therefore plotting log (number of square boxes) vs. log (size in pixels) relationship generates a linear curve with Df representing the slope of the curve. Every photograph that was taken, was opened in a Photoshop software and a new layer was generated on it. Using a 5-pixel wide digital pencil tool, all the outgrowths were marked and the layer with the markers (outgrowth network) was saved in a 0-255 gray scale as described in FIG. 2. Then, the saved layer was opened by ImageJ NIH software. The software “skeletonized” the layer, measured the length and complexity of every outgrowth in a fractal box count and calculated the fractional dimension parameter (Df).^32
Each experiment was performed in duplicates and repeated three to four times (n=6-8). By using SPSS software, one way ANOVA was performed for the fractional dimension of each compound, in order to evaluate the neurotropic effect. In case of significance, Bonferroni post-hoc analysis was performed. The results were considered significant when p<0.05.
For C=CCC1COC[C@@H](CC(=O)O)C1=C (stereo partly shown) [Compound 16], the “neurotropic activity (in words)” value was “complete loss of neurotropic activity”. With C=C(C)CC1CCCC(CC(=O)OC)C1=O (stereo not shown) [Compound 18, Methyl 2-(3-(2-methylallyl)-2-oxocyclohexyl)acetate] the “neurotropic activity (in words)” value was “No significant neurotropic activity”. With C=CCC1CCCC(CC(=O)OC)C1=O (stereo not shown) [Compound 20, Methyl 2-(3-allyl-2-oxocyclohexyl)acetate] the “neurotropic activity (in words)” value was “No significant neurotropic activity”. C=CCC1CSC[C@@H](CC(=O)O)C1=C (stereo partly shown) [Compound 17] was tested, and the “neurotropic activity (in words)” value was “complete loss of neurotropic activity”. With C=CCC1CN(C(=O)OCC)CC(CC(=O)OC)C1=C (stereo not shown) [Compound 15, Ethyl-3-allyl-5-(2-methoxy-2-oxoethyl)-4-methylenepiperidine-1-carboxylate] the “neurotropic activity (in words)” value was “complete loss of neurotropic activity”. For C=CCC1CCC[C@@H](CCC#N)C1=O (stereo partly shown) [Compound 19], the “neurotropic activity (in words)” value was “No significant neurotropic activity”. COC(=O)CC1CCCC(CC=C(C)C)C1=O (stereo not shown) [Compound 21, Methyl 2-(3-(3-methylbut-2-en-1-yl)-2-oxocyclohexyl)acetate] was tested, and the “neurotropic activity (in words)” value was “No significant neurotropic activity”.
